Data as given in PubChem BioAssay AID1259424 (University of Nebraska Medical Center, 2018)

- Aim: 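Find knockdowns that reproduce the expression shifts seen after KSR1 loss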 (primary screen)
- Cell system: human HCT116 colon cancer cells
- Reagents: siRNA pool against human genes, 50 nM
- Read-out: 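Six signature mRNAs by branched-DNA multiplex assay, scaled to two housekeeping genes and non-targeting median, log2; matched to mean KSR1 knockdown profile by Pearson correlation and euclidean distance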
- Scale: mean correlation with KSR1 profile: higher = expression change more like KSR1 knockdown; mean distance from KSR1 profile: higher = expression change less like KSR1 knockdown
Here is an unselected part of about 14,000 reagents tested. 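Higher correlation or smaller distance means closer resemblance to KSR1 loss; control wells, including KSR1 knockdowns, recur on many plates.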 Not all columns of the deposit are shown. The record does not give: the time to read-out.

With knock-down of WDR70 (GeneID 55100), the screen gave mean correlation with KSR1 profile -0.247; mean distance from KSR1 profile 3.8.
For RAC1 (GeneID 5879), the entry reads mean correlation with KSR1 profile 0.687; mean distance from KSR1 profile 2.28.
After knock-down of ZDHHC18 (GeneID 84243) the results were mean correlation with KSR1 profile 0.597; mean distance from KSR1 profile 3.54.
Depletion of NINJ1 (GeneID 4814) gave: mean correlation with KSR1 profile -0.0354; mean distance from KSR1 profile 2.12.
CARD10 (GeneID 29775) showed mean correlation with KSR1 profile 0.586; mean distance from KSR1 profile 1.35.
FGR (GeneID 2268) scored mean correlation with KSR1 profile 0.364; mean distance from KSR1 profile 3.94.
For CCDC40 (GeneID 55036), the entry reads mean correlation with KSR1 profile -0.295; mean distance from KSR1 profile 1.46.
KIFC3 (GeneID 3801) showed mean correlation with KSR1 profile 0.0933; mean distance from KSR1 profile 2.14.
Silencing of OAZ2 (GeneID 4947) gave: mean correlation with KSR1 profile -0.348; mean distance from KSR1 profile 2.25.
With knock-down of CENPBD1P (GeneID 92806) the results were mean correlation with KSR1 profile -0.283; mean distance from KSR1 profile 1.1.
Depletion of PPP1R7 (GeneID 5510) gave: mean correlation with KSR1 profile 0.191; mean distance from KSR1 profile 1.68.
DCT (GeneID 1638) scored mean correlation with KSR1 profile -0.189; mean distance from KSR1 profile 2.86.

Records above whose target name begins with C or c (3):
CARD10 (GeneID 29775): mean correlation with KSR1 profile = 0.586; mean distance from KSR1 profile = 1.35
CCDC40 (GeneID 55036): mean correlation with KSR1 profile = -0.295; mean distance from KSR1 profile = 1.46
CENPBD1P (GeneID 92806): mean correlation with KSR1 profile = -0.283; mean distance from KSR1 profile = 1.1
